Measurements taken from PMC5725494, “Cell cycle-dependent phosphorylation regulates RECQL4 pathway choice and ubiquitination in DNA double-strand break repair”.

Experiments:
Assay in all cases: EMSA
Settings in all cases: 50 nM protein, similar affinity for all three proteins; 25 mM HEPES pH 7.4, 5 mM MnCl2, 1 mM DTT, 100 ng/mL BSA, 5% glycerol, no ATP; 10 min at 37 °C; 10% native PAGE; recombinant protein; protein details: 3xFLAG
RECQL4 WT (RQ4Wt) = biological target: T1, RECQL4 WT (RQ4Wt) (UniProt O94761)
T1 sequence (looked up, limits assumed): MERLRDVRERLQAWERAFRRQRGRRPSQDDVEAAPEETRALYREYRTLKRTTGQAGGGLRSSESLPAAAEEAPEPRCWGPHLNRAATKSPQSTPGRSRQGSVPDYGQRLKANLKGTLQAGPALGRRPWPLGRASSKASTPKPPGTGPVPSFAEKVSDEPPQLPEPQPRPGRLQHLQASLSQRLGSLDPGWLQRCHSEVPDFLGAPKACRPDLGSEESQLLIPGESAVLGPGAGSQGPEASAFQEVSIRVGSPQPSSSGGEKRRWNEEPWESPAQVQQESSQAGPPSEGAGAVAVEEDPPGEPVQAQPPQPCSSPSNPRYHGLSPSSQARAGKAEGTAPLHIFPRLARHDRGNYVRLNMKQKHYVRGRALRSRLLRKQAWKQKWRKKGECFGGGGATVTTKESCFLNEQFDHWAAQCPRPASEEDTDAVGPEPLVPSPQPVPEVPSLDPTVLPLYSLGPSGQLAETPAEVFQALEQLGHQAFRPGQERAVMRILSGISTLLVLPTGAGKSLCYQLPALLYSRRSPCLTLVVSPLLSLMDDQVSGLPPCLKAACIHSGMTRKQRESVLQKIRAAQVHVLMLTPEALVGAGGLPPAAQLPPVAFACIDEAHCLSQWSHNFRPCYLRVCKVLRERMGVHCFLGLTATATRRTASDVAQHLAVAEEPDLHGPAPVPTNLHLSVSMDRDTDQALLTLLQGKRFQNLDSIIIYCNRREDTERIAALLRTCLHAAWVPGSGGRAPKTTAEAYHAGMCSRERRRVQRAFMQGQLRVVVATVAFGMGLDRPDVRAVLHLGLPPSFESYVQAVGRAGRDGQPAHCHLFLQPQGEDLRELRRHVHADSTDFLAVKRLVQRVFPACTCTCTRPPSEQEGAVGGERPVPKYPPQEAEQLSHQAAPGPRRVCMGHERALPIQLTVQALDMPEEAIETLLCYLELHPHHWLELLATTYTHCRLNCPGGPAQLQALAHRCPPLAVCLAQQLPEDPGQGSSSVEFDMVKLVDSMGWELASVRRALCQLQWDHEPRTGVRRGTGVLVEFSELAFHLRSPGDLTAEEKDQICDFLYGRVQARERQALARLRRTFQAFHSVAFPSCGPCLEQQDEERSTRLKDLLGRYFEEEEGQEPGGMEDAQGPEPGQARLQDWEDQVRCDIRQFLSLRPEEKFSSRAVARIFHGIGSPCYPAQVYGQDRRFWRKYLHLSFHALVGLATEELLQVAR

RECQL4 RQ4-2A S89A,S251A = biological target: T2, RECQL4 RQ4-2A S89A,S251A (UniProt O94761)
T2 sequence (looked up, limits assumed): T1 sequence (looked up, limits assumed) with S89A, S251A

RECQL4 RQ4-2D S89D,S251D = biological target: T3, RECQL4 RQ4-2D S89D,S251D (UniProt O94761)
T3 sequence (looked up, limits assumed): T1 sequence (looked up, limits assumed) with S89D, S251D

Measured: binding result

ACTTGAATGCGGCTTAGTATGCATTGTAAAACGACGGCCAGTGC / AATGCATACTAAGCCGCATTCAAGT [duplex with 3' ssDNA overhang]
binds: RECQL4 WT (RQ4Wt) | RECQL4 RQ4-2A S89A,S251A | RECQL4 RQ4-2D S89D,S251D

Residue numbers refer to the chain shown, from its start. The exact form of at least one protein or probe is not confirmed. At least one verdict rests on a figure or table, not on a statement of the authors. Tags and fusion partners may be left off the protein sequences shown.
